Data: article PMC3119047
Results are given in words; binding and its absence hold for the method and conditions named. For some of these results: Binding seen in cells or lysates may run through a third protein. Some binding calls cover weakened binding; strength is not graded here. Tags and fused reporters may be left off the sequences shown. One block for each binder: values may come before it.

Experiments:
[1] = target: T1, AtBMI1C (yeast two-hybrid fusion) (Arabidopsis thaliana) (UniProt Q9LS86); assay: two-hybrid; pGADT7 and pGBKT7 fusions co-transformed into yeast strain AH109; growth on plates lacking Leu, Trp, His and adenine; quantitative β-galactosidase activity
T1 sequence: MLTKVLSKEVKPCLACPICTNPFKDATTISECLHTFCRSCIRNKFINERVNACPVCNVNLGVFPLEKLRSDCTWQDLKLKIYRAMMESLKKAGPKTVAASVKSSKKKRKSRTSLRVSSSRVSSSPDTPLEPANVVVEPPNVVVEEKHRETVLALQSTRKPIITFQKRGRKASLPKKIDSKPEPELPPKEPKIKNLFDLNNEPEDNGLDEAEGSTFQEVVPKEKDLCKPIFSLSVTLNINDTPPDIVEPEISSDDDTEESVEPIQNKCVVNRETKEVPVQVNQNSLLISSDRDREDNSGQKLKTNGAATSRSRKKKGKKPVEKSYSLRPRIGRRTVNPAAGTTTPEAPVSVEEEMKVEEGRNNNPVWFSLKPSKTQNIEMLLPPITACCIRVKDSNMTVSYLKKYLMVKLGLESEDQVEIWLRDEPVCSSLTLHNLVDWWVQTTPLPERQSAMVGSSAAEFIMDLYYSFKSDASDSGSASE

[2] = target: T2, MBP-AtBMI1C (Arabidopsis thaliana) (UniProt Q9LS86); assay: pull-down; MBP-AtBMI1C-coated beads (amylase resin) incubated with plant total protein extract for 2 h at 4°C; 50 mM Tris-HCl pH 7.6, 150 mM NaCl, 2 mM EDTA; washed three times; Western blot with anti-Myc and anti-MBP; only the target purified
T2 sequence: T1 sequence

B2: Myc-RING1B (protein, UniProt Q0WX00 1-460)
chain: MPSLKSFSAAEEEDDQLGRNSEAERFNPEAVEKEEDPDKMDEKDESGDEEDDVKRDQVEAEDEEALGEEEDSKERSQSSSAGELSESEYMVVDLADICKDVQCSICLGIIRKTRTVMECLHRFCRECIDKSMRLGNNECPTCRKHCASRRSLRDDPNFDALIAALFKNIDKFEEEELNFRQDDEARNKQIQASIAQVSQRQSKALVKRKSVGKGTAILSRSRRSGGGSRRRRNCRNIEQDTSEANDDDDQNKRGKDSSSDEPCERQRKKRSATQPSSSNANNNDNCAGNGTEQTHQRDSRVISPVLVWNSELIAWGRGGTRSNTRQGNNNQGAISKRNARLKRLVEYLGSLEGNSVELDIHLKLVSLDTEGLLNLHEPYLCFRPTLLVKQLREYVARHLKLKAEEVELLVSKDGDTVIGNKTSTEKMQSLQDDETVAKLKVDCISSNGYMIVVYRRKQIA
- binding [2]: binds

B3: AtRING1A (yeast two-hybrid fusion) (protein, UniProt Q9FKW0 1-522)
chain: MSVKNNSFSSAEIPDVADQPRDRFNPEATQDLQEKDETKEEKEGDEEVKHDEAEEDQEVVKPNDAEEDDDGDDAEEDEEEEVEAEEDEEAEEEEEEEEEEEEEEEDSKERSPSSISGDQSEFMEIDLGEIRKDVQCPICLGIIKKTRTVMECLHRFCRECIDKSMRLGNNECPACRKHCASRRSLRDDPKFDALIAALFTNIDSYEEEELAFHEDEMARNKQIQASIAQISQRQSEALVKRRSLGKEAAVLMRSPRIASGSRRRRNSRNMEQQNASEAHEDDDNDDNNNRGRDKDSSSDERGTEVRQKKRRKRSTSRSTQHPSSSGANKNNGNCADNDTEVYRDTKGISPGLVWNPEILAWGRGGTRSNTRHGNNTSGGSSKSVRNARVNKLVEYLRSSVDGSSVELDIHVKLVSLDTKCIPDLPQPYLCCRPTLLVKQLREFVALQIHLKTEEVELLVTRRRVGEDAAIENLPAVTPASAAASKDEMLSLEDNETLSRLKIDFISSHEQHLIIAYRKKQTE
- binding [1]: binds

More lines, now with the values ahead:

- binding [1]: binds
B1: AtRING1B (yeast two-hybrid fusion) (protein, UniProt Q0WX00 1-460)
chain: B2 chain

- binding [2]: binds
B4: Myc-RING1A (protein, UniProt Q9FKW0 1-522)
chain: B3 chain
